From publication doi:10.1101/2021.02.10.430492
Results are given in words; binding and its absence hold for the method and conditions named. Binding calls can cover weak binding; strength is not graded here.

Target: T1, Twist (Drosophila) (UniProt P10627)
T1 sequence: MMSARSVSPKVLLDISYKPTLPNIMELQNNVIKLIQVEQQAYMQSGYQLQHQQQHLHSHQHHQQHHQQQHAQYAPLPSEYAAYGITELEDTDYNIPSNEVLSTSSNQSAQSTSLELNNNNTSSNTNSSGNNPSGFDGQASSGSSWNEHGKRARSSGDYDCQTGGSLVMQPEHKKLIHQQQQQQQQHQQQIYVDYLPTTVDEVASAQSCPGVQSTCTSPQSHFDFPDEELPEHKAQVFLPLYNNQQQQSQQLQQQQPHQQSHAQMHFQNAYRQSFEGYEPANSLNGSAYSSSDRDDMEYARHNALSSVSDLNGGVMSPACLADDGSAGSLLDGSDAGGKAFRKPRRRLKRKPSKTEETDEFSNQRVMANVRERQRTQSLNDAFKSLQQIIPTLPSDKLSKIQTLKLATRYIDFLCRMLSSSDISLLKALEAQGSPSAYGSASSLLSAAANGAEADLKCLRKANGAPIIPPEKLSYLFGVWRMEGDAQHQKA
Test: yeast double interaction screen

binding	Substance
binds	Crc (Drosophila)
binds	nop5 (Drosophila)
